No constants are given. Whether binding was seen depends on the method and setting. Some entries that bind do so weakly or less than the wild type.
molecular target: ErbB3 (UniProt P21860); assay: MRD screen, Example 48

Amino acid sequences for entries named in this document (tags omitted). Residues count along the entry.
UniProt P21860, residues 20-643: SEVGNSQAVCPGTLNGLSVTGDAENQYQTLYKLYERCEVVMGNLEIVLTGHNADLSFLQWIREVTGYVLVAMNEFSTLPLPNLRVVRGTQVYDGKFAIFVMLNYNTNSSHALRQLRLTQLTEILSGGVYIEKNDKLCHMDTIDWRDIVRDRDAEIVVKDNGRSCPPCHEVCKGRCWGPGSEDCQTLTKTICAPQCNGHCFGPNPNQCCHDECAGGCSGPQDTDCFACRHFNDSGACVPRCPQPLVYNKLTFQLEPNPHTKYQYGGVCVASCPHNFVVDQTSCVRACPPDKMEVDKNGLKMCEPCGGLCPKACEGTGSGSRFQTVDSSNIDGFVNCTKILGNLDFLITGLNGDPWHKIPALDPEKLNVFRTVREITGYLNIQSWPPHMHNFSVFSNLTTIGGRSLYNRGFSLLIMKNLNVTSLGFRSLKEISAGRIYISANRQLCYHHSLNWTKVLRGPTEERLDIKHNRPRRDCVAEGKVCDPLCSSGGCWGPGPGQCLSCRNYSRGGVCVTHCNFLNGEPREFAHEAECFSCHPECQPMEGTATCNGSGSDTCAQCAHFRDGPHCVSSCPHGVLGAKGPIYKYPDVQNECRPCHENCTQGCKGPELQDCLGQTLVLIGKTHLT

binding | Binder
binds | KFFMCQVYPSNRWAVCVETL [EGC120]
binds | GFIMCQVYPSENWHVCLDRG [EGC144]
binds | TFFICQVYPSGKWHVCVDTV [EGC143]
binds | RFLVCQVYPSLKWHVCVEKS [EGC142]
binds | NFLMCQVYPSYKWHVCVEQL [EGC141]
binds | YFRMCQVYPSLKWHICVETM [EGC175]
binds | SQVYCPFHNPIWLAHCMELM [EGC163]
binds | KFQLCQVYPSERWHICVVTL [EGC166]
binds | KLMLCQVYPSLKWHVCVEAS [EGC140]
binds | KFIMCQVYPSERWHVCLETM [EGC145]
binds | FKERCPFQNPIWYSRCMELI [EGC158]
binds | VQQFVHWMESWNPACFWRM [EGC39]
binds | TFMMCQVYPSLKWHVCIETG [EGC133]
binds | KFFMCQIYPSLKWHVCVEKL [EGC152]
binds | QFFMCQVYPSLRWSVCQVTL [EGC154]
binds | SLVKCPFFNPIWWSHCMELM [EGC104]
binds | NFVMCQVYPSYTWHVCVGTL [EGC130]
binds | AQVRCPFQNPVWYSHCMDLI [EGC174]
binds | LLNQCLQWAFHNCGCWN [EGC40]
binds | LDLCMTIERPHRQCPCG [EGC14]
binds | GFHMCQVYPSGKWLVCLHPR [EGC156]
binds | GTQECAQDDYFRYWCLRTW [EGC13]
binds | NLLLCKVYPSGKWHVCFAPL [EGC165]

binding | Binder
binds | SLVSCPVHNPIWWSHCMEIM [EGC93]
binds | PTLSACMEAKCVLIFL [EGC3]
binds | LSWWCRMGWFQEYGECNFLF [EGC44]
binds | VYQLCIKMWVCTWHG [EGC1]
binds | DQVRCPFQNPVWWSHCMYLL [EGC115]
binds | TNIRCPFQNPIWYSHCIALT [EGC169]
binds | TQVYCPFANPVWWNHCMLLS [EGC151]
binds | KFILCQVYPSGKWHICTETL [EGC164]
binds | SFVMCPVYNPKQWSVCMEIL [EGC101]
binds | PLERCPFQNPLWFSHCMEML [EGC117]
binds | LLWRCELMPPWPYMCSEVD [EGC5]
binds | SKVYCPFQNPIWFAKCIELM [EGC136]
binds | RFVMCQVYPSAKWHVCVETL [EGC168]
binds | IAREFCMNYQCLRLLR [EGC20]
binds | SAVRCPFHNPIWYSHCMKLL [EGC172]
binds | EFYMCQVYPSELWHVCVDKL [EGC157]
binds | KFMICRLYPSGNLHICVETS [EGC132]
binds | SEIRCPFKNPIWYAHCMKLI [EGC160]
binds | KFLMCRLYPSGKWHVCVETL [EGC123]
binds | PKVRCPFQNPIWWSHCMEML [EGC129]
binds | GFVMCQVYPSQKWHVCLDTF [EGC155]
binds | LWRWCVWARDCPQSS [EGC19]
binds | RFVMCQVYPSLNWHVCVQTL [EGC134]

binding | Binder
binds | LEVYCPFENPIWWARCMELM [EGC125]
binds | CHVSCPFYNPNWWSHCMELM [EGC99]
binds | NFYMCKVYPSELWHVCVETL [EGC167]
binds | SPVRCPFQNPIWYAHCMKIT [EGC135]
binds | TQVRCPFQNPIWWSHCMEML [EGC139]
binds | SDVYCPFSNPAWWVHCMEML [EGC150]
binds | LFLMCLVYPSEKWHVCVETL [EGC102]
binds | WSHACIVYNDKIMGACTCLT [EGC106]
binds | SSVRCPFQNPIWWSHCMELL [EGC159]
binds | KVMFCWVMWKQCSSPP [EGC54]
binds | GHRLCIWMQNFVDGHCAGLV [EGC94]
binds | FLEMCMDWNPKTWCYCMEWM [EGC100]
binds | SQVRCPFQNPIWYTHCMELL [EGC161]
binds | PQVRCPFQNPIWYSHCMKLM [EGC138]
binds | KFVMCQVYPSEKWHVCIAPL [EGC153]
binds | SYWVCLTYFICWPSW [EGC21]
binds | SQVRCPFQNPIWRNHCMELI [EGC128]
binds | RFFMCQVYPSYKWHVCVESW [EGC122]
binds | SPVRCPFQNPIWYEHCMALI [EGC171]
binds | WTHACVVWNMKQMEACTSLT [EGC48]
binds | TFYVCQIYPSGKWHVCVGTC [EGC121]
binds | DLVGCLLFSHVSCFSPL [EGC2]
binds | SRVRCPFQNPIWLAHCMKMT [EGC127]

Reference: patent US20160046678A1 (ZYNGENIA, published 2016)
